From patent US12065471B2, “B*44 restricted peptides for use in immunotherapy against cancers and related methods” (Immatics Biotechnologies GmbH, priority 2018, dated 2024) come the findings set out here.

For some of these results: Expression values are those of the mRNA of the gene that encodes the peptide; a gene is named only where it was looked up.

The first data set relates to source genes (mRNA) in tumor and normal tissues. Nature of the data set: Expression profiling of genes encoding the peptides (RNAseq). More on the design: species or system human. The settings on record: tumor types in which the peptide's source gene is highly over-expressed compared to a panel of normal tissues (RNAseq).
As for “173: peptide found in PTPRZ1 (gene looked up) (SEHSLEGQKF; listed as Homo sapiens) [compound 173]”, the “Gene Expression in tumor samples: highly over-expressed (++)” value is reported as “GBM”.
For “212: peptide found in SIGLEC15 (gene looked up) (SEASVYLFRF; listed as Homo sapiens) [compound 212]”, the “Gene Expression in tumor samples: highly over-expressed (++)” value is on record as “UBC”.

Staying with this data set, now noted: tumor types in which the peptide's source gene is over-expressed compared to a panel of normal tissues (RNAseq).
Take “212: peptide found in SIGLEC15 (gene looked up) (SEASVYLFRF; listed as Homo sapiens) [compound 212]”: the “Gene Expression in tumor samples: over-expressed (+)” value was “HCC, MEL, NHL, OC, PACA, UEC”.

Another data set deals with HLA molecules of primary tumor and normal tissue samples. Nature of the data set: Identification and quantitation of tumor associated peptides presented on the cell surface (HLA immunoprecipitation, label-free LC-MS). More on the design: species or system human. The settings on record: HLA-B*44 positive normal (N=124) vs tumor samples (N=159), FIGS. 1A-1M.
On to “QEAKPRATW (listed as Homo sapiens) [SEQ ID NO: 409]”, for which the “over-presentation of peptide in cancer tissues (median MS signal intensities, detection frequency)” value is given as “over-presentation”.
Take “QEILHGAVRF (listed as Homo sapiens) [SEQ ID NO: 253]”: the “over-presentation of peptide in cancer tissues (median MS signal intensities, detection frequency)” value was “over-presentation”.

The data set is the same for the next values; noted with them: cancer entities on which the peptide was found presented (HLA immunoprecipitation, LC-MS); abbreviations in table footnotes.
With “412 (EESFDSKFY; listed as Homo sapiens) [compound 412]”, the “Peptide Presentation on cancer entities” value is recorded as “CLL, CRC, HNSCC, NHL, NSCLCadeno, NSCLCsquam, PACA”.
For the substance “324 (QELSSIRQF; listed as Homo sapiens) [compound 324]”, the “Peptide Presentation on cancer entities” value is recorded as “NHL”.
“357 (AELMDKPLTF; listed as Homo sapiens) [compound 357]”: the “Peptide Presentation on cancer entities” value is recorded as “CRC, NSCLCadeno”.
“306 (RRHPSFKRF; listed as Homo sapiens) [compound 306]”: the “Peptide Presentation on cancer entities” value is “GBC”.
For “404 (AEREQVIKL; listed as Homo sapiens) [compound 404]”, the “Peptide Presentation on cancer entities” value was “AML”.
For “21 (SEAKEIKSQL; listed as Homo sapiens) [compound 21]”, the “Peptide Presentation on cancer entities” value is “BRCA”.
As for “66 (AEVTLNNTI; listed as Homo sapiens) [compound 66]”, the “Peptide Presentation on cancer entities” value is reported as “NSCLCadeno”.
As to “268 (EDLAVHLY; listed as Homo sapiens) [compound 268]”, the “Peptide Presentation on cancer entities” value is listed as “CLL”.
Same read-out and setting: the entry for “354 (TEIMEKTTL; listed as Homo sapiens) [compound 354]” is “CCC”; for “182 (EELHAALSEW; listed as Homo sapiens) [compound 182]” it is “CRC, GBC, GC”; for “301 (AERIMFSDL; listed as Homo sapiens) [compound 301]” it is “OSCAR”.
Take “449 (RENDFEPKF; listed as Homo sapiens) [compound 449]”: the “Peptide Presentation on cancer entities” value is recorded as “NHL”.
On the same count and under the same terms, the entry for “445 (QEVGEITNL; listed as Homo sapiens) [compound 445]” is “CCC, NSCLCsquam, UBC”; for “426 (AESLFREAL; listed as Homo sapiens) [compound 426]” it is “HNSCC, NSCLCsquam”; for “175 (NLKSPIPLW; listed as Homo sapiens) [compound 175]” it is “GBM, MEL, PACA, UBC”.
As for “216 (AGSPVMRKW; listed as Homo sapiens) [compound 216]”, the “Peptide Presentation on cancer entities” value is recorded as “NSCLCsquam”.
On to “160 (AEIATTGQLY; listed as Homo sapiens) [compound 160]”, for which the “Peptide Presentation on cancer entities” value is reported as “GBM, MEL”.
As for “78 (TEFSNHINL; listed as Homo sapiens) [compound 78]”, the “Peptide Presentation on cancer entities” value was “BRCA”.
Take “159 (EEVQDGKVI; listed as Homo sapiens) [compound 159]”: the “Peptide Presentation on cancer entities” value is “CCC, HNSCC, NSCLCadeno, OSCAR, PACA”.
Turning to “223 (SEVEGLAFV; listed as Homo sapiens) [compound 223]”, the “Peptide Presentation on cancer entities” value is listed as “NSCLCadeno, PACA”.
As for “169 (KEHNSSVPWSS; listed as Homo sapiens) [compound 169]”, the “Peptide Presentation on cancer entities” value was “RCC”.
In the case of “405 (YEHAFNSIVW; listed as Homo sapiens) [compound 405]”, the “Peptide Presentation on cancer entities” value is reported as “RCC”.
The same measure, in the same setting: the entry for “266 (EEEDRDGHTW; listed as Homo sapiens) [compound 266]” is “GBC, UBC”; for “389 (DEQRRQNVAY; listed as Homo sapiens) [compound 389]” it is “CRC, MEL, OSCAR”; for “347 (LENPHVQSV; listed as Homo sapiens) [compound 347]” it is “AML”.
Regarding “298 (KEVASNSEL; listed as Homo sapiens) [compound 298]”, the “Peptide Presentation on cancer entities” value is “NSCLCsquam”.
With “112 (AEIEADRSYQH; listed as Homo sapiens) [compound 112]”, the “Peptide Presentation on cancer entities” value was “HNSCC, OSCAR”.
On the same count and under the same terms, next, “444 (SESALQTVI; listed as Homo sapiens) [compound 444]”: “CCC, NSCLCadeno, UBC”; “322 (REESDWHYL; listed as Homo sapiens) [compound 322]”: “BRCA”; “44 (SEFGAPRW; listed as Homo sapiens) [compound 44]”: “CCC”.
Regarding “49 (SEYVHSSF; listed as Homo sapiens) [compound 49]”, the “Peptide Presentation on cancer entities” value was “BRCA”.
Consider “256 (RLLPGKVVW; listed as Homo sapiens) [compound 256]”, for which the “Peptide Presentation on cancer entities” value is listed as “PACA”.
On the same count and under the same terms, next, “421 (TEDYSKQAL; listed as Homo sapiens) [compound 421]”: “CCC, NSCLCsquam, UBC”.
Take “8 (ELMEVDPIGHLY; listed as Homo sapiens) [compound 8]”: the “Peptide Presentation on cancer entities” value was “OSCAR”.
Regarding “64 (EEYQDSFERY; listed as Homo sapiens) [compound 64]”, the “Peptide Presentation on cancer entities” value is reported as “HNSCC, OSCAR”.
For the substance “185 (TEANVQALF; listed as Homo sapiens) [compound 185]”, the “Peptide Presentation on cancer entities” value is given as “CLL, NHL”.
Regarding “225 (VEAATVSKW; listed as Homo sapiens) [compound 225]”, the “Peptide Presentation on cancer entities” value is “BRCA, CCC, CRC, GBC, HNSCC, MEL, NSCLCadeno, OC, OSCAR, RCC, SCLC, UEC”.
The same measure, in the same setting: next, “326 (RELLDFSSW; listed as Homo sapiens) [compound 326]”: “CRC, MEL, UBC, UEC”.
Take “438 (AELDSKILAL; listed as Homo sapiens) [compound 438]”: the “Peptide Presentation on cancer entities” value is reported as “BRCA, NSCLCsquam, OC”.
Take “361 (EDASLMGLY; listed as Homo sapiens) [compound 361]”: the “Peptide Presentation on cancer entities” value was “GBM”.
Take “364 (EECDKAYSF; listed as Homo sapiens) [compound 364]”: the “Peptide Presentation on cancer entities” value is reported as “BRCA, CCC, CLL, CRC, GC, HCC, HNSCC, NHL, NSCLCadeno, NSCLCsquam, OC, OSCAR, PACA, PRCA, RCC, UBC, UEC”.
On the same count and under the same terms, the entry for “435 (FETEQALRL; listed as Homo sapiens) [compound 435]” is “NSCLCadeno, NSCLCsquam, PACA, UBC”.
For “292 (HELALRQTV; listed as Homo sapiens) [compound 292]”, the “Peptide Presentation on cancer entities” value was “OSCAR”.
“437 (HEDPSGSLHL; listed as Homo sapiens) [compound 437]”: the “Peptide Presentation on cancer entities” value was “BRCA, UBC”.
Turning to “5 (VEFLLLKY; listed as Homo sapiens) [compound 5]”, the “Peptide Presentation on cancer entities” value is on record as “HCC”.
Take “238 (VEDDNYKLSL; listed as Homo sapiens) [compound 238]”: the “Peptide Presentation on cancer entities” value is given as “BRCA, CLL”.
For the substance “365 (NESGKAFNY; listed as Homo sapiens) [compound 365]”, the “Peptide Presentation on cancer entities” value was “BRCA, CCC, CLL, CRC, GBM, GC, HCC, HNSCC, MEL, NHL, NSCLCadeno, NSCLCsquam, OC, OSCAR, PACA, PRCA, RCC, UBC, UEC”.
Same read-out and setting: next, “368 (KEKVPGITI; listed as Homo sapiens) [compound 368]”: “AML, MEL, NSCLCadeno, NSCLCsquam, OSCAR, PACA”.
As for “203 (REILHAQTL; listed as Homo sapiens) [compound 203]”, the “Peptide Presentation on cancer entities” value was “CLL, NHL”.
As for “249 (YEMAIYKKY; listed as Homo sapiens) [compound 249]”, the “Peptide Presentation on cancer entities” value is listed as “MEL, PRCA”.
In the case of “436 (AEADLSYTWDF; listed as Homo sapiens) [compound 436]”, the “Peptide Presentation on cancer entities” value is reported as “MEL”.
For the substance “279 (GEPVTQPGSLL; listed as Homo sapiens) [compound 279]”, the “Peptide Presentation on cancer entities” value is listed as “CLL”.
Consider “108 (QETNKVETY; listed as Homo sapiens) [compound 108]”, for which the “Peptide Presentation on cancer entities” value is recorded as “OSCAR”.
As for “221 (KEAFGPQAL; listed as Homo sapiens) [compound 221]”, the “Peptide Presentation on cancer entities” value is on record as “NSCLCsquam”.
Consider “148 (KESDAGRYY; listed as Homo sapiens) [compound 148]”, for which the “Peptide Presentation on cancer entities” value is on record as “CLL, NHL”.
Take “195 (MEIKGTVTEF; listed as Homo sapiens) [compound 195]”: the “Peptide Presentation on cancer entities” value is listed as “GBC”.
The same measure, in the same setting: the entry for “165 (EEIEAHIAL; listed as Homo sapiens) [compound 165]” is “AML, CCC”; for “25 (SEKEPGQQY; listed as Homo sapiens) [compound 25]” it is “HCC”.
As for “400 (TELGLFGVW; listed as Homo sapiens) [compound 400]”, the “Peptide Presentation on cancer entities” value was “HNSCC, NSCLCadeno”.
For the substance “106 (SVISDSPRSW; listed as Homo sapiens) [compound 106]”, the “Peptide Presentation on cancer entities” value is listed as “OSCAR”.
Still for that read-out and setting: the entry for “79 (TEAQRLDCW; listed as Homo sapiens) [compound 79]” is “MEL”.
Same read-out and setting: next, “18 (QEAPRPASSL; listed as Homo sapiens) [compound 18]”: “NSCLCsquam”.
